The list shows a part of the results.
Target: OsWRKY34 (Oryza sativa, UniProt Q0JBA9 1-250)
Assay: protein-binding microarray (RPBM); PBS, 2% BSA, 51.3 ng/ul salmon testes DNA, 50 uM zinc acetate, 200 nM TF, 25 C, 1 h; high values mean tight binding
Details: protein: recombinant; tags: N-terminal polyhistidine and DsRed monomer fusion (pET32a); label: CyDye5-dUTP incorporated in the synthesized complementary strand; 3' TTTTT single-stranded linker to array surface; dsDNA, one strand shown
Method in brief: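 Transcription factors, each fused N-terminally to a polyhistidine tag and DsRed, were expressed in E. coli BL21-CodonPlus and purified on Ni–NTA. A custom Agilent array was made double-stranded by primer extension with Cy5-dUTP and blocked with 2% BSA. It was incubated with 200 nM protein in PBS, 2% BSA, salmon testes DNA and 50 µM zinc acetate at 25 °C for 1 h, then washed. The binding signal is per-feature fluorescence intensity (arbitrary units) read on an Axon 4000B scanner.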

The chains behind the UniProt entries cited, without tags or fusion partners.
UniProt Q0JBA9, entry or part of it: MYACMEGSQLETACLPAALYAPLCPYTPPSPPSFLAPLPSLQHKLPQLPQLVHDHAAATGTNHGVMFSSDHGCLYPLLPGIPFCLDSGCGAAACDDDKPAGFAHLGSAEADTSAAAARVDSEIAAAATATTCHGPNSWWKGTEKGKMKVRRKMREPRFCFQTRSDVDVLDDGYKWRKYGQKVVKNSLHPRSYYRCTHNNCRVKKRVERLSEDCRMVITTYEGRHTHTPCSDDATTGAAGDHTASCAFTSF

Row | Sequence | binding signal
1 | CCTCCTCACCACCACCACCACCATATATTCCCTTGCACACCGGAGTCACCTAGTGCAG | 9320 fluorescence intensity (a.u.)
2 | ACACAACCCAAGTGAGCACTAGCTTTATATTACCCGCGTCCGGAGTCACCTAGTGCAG | 9410 fluorescence intensity (a.u.)
3 | GCCTGGTTTTATAAGTTGTGGGATGGGTTATATCTAGTATCGGAGTCACCTAGTGCAG | 28800 fluorescence intensity (a.u.)
4 | GTGTTCCAATTGGCTCCACTCTTGGTGTATGATGCTTTCACGGAGTCACCTAGTGCAG | 8170 fluorescence intensity (a.u.)
5 | CCTGACGCAACCTTTTGTCCTTATTGCTGGGTTCCTCTTGCGGAGTCACCTAGTGCAG | 8070 fluorescence intensity (a.u.)
6 | CGTCCCTTGGACGTCATCTTCTCCTCACGTGCATTGCCTCCGGAGTCACCTAGTGCAG | 8520 fluorescence intensity (a.u.)
7 | GCGCCTCCGCCTGCGCGCCCGGCACGCACACTCGCGTCGCCGGAGTCACCTAGTGCAG | 8090 fluorescence intensity (a.u.)
8 | GCCCCTTCTTCATGCGCCACCGCCGCCTCCTCGTTCTTCCCGGAGTCACCTAGTGCAG | 8860 fluorescence intensity (a.u.)
9 | GATAGAAAGGGGTCAAAATGGCAAGGGGCTATTTGGTAATCGGAGTCACCTAGTGCAG | 8200 fluorescence intensity (a.u.)
10 | CAAATCTGTATATAGATCGAGCCTCTTATTCTGCTTCTTCCGGAGTCACCTAGTGCAG | 10200 fluorescence intensity (a.u.)
11 | CCCTTACATCTCTCCATTGTTCTTTTTGCTCTCTTTCAAACGGAGTCACCTAGTGCAG | 10400 fluorescence intensity (a.u.)
12 | AATATTAGGAGGTGGGATTTTCTGTCACTAGATATGTAGACGGAGTCACCTAGTGCAG | 8900 fluorescence intensity (a.u.)
13 | ACGTTTTTCCTGCGCTCCAATCAATCGACCATTCCTATGTCGGAGTCACCTAGTGCAG | 8050 fluorescence intensity (a.u.)
14 | GCGTGCAACATGTTCCTCTTTGCGTTCGATCCTTCAAGTTCGGAGTCACCTAGTGCAG | 11300 fluorescence intensity (a.u.)
15 | TCGGCATCTCTCCTGCGCGGGCGAGTCGTCCTCCTCGTCCCGGAGTCACCTAGTGCAG | 8110 fluorescence intensity (a.u.)
16 | TCTGGTGTGTTTGTATGGATGGGGTGATGTCCATGGGAGACGGAGTCACCTAGTGCAG | 11100 fluorescence intensity (a.u.)
17 | TAATATACTCTCTATCATAGGTGGTGTTCTTTTCTCCTAACGGAGTCACCTAGTGCAG | 9610 fluorescence intensity (a.u.)
18 | TTTACACTTACATTCCTATTAAAATCCTACGTTTTTCCTGCGGAGTCACCTAGTGCAG | 9400 fluorescence intensity (a.u.)
19 | ATTGTAACATAATTATCACTCCTAGGTTTATTTTCAAGCACGGAGTCACCTAGTGCAG | 8270 fluorescence intensity (a.u.)
20 | GGGGTTGGCCAATGGATGAATCGGGTCATTTTATCCGCTCCGGAGTCACCTAGTGCAG | 9330 fluorescence intensity (a.u.)
21 | GGGTGGGATGGATTGGTCCTAGGAGAGGAATATTCCTCTCCGGAGTCACCTAGTGCAG | 8460 fluorescence intensity (a.u.)

Row | Sequence | binding signal
22 | TACGTCAACCGTCTCCATCCACTCAAACAGCGGGCTAAAACGGAGTCACCTAGTGCAG | 8410 fluorescence intensity (a.u.)
23 | GGAGGGGCGGTGGCCGCCGGCGGCCCGCGCGGCGGGAGCGCGGAGTCACCTAGTGCAG | 9240 fluorescence intensity (a.u.)
24 | TTGCTGTCTCTGCTTCGTTGCTGCCATCCTATCTTAAGTCCGGAGTCACCTAGTGCAG | 8960 fluorescence intensity (a.u.)
25 | TCAGGTTATAAGACGTTTTGACTTTGGCCAAAGTCAAACTCGGAGTCACCTAGTGCAG | 9340 fluorescence intensity (a.u.)
26 | AAAAGTTCTTCAGAGTTGGTCGATCAATCTCTCTTTATTTCGGAGTCACCTAGTGCAG | 8700 fluorescence intensity (a.u.)
27 | GCTTCGACGTGTCCGTGCCACGTGCCGTCCCTCCATTCGCCGGAGTCACCTAGTGCAG | 8530 fluorescence intensity (a.u.)
28 | GAGTGCCATTGAATCCTTCTGTTGCGTTGACCACCAAATGCGGAGTCACCTAGTGCAG | 16500 fluorescence intensity (a.u.)
29 | GGAGGGAGGGAGTATCAATCATTTGAAGAGTTCAGTGACACGGAGTCACCTAGTGCAG | 8430 fluorescence intensity (a.u.)
30 | CCGCCGGCGGCGTCGACCTCACCCCGGCCGCCGCGCGGCGCGGAGTCACCTAGTGCAG | 9490 fluorescence intensity (a.u.)
31 | GTGTTGCGATGGATGGTTACAGAGAGTGAGAAGAGTTGACCGGAGTCACCTAGTGCAG | 8920 fluorescence intensity (a.u.)
32 | GCGCCGTCCCTTCGGGCCCACAAGCCGTCCACCCACTTCCCGGAGTCACCTAGTGCAG | 11300 fluorescence intensity (a.u.)
33 | TATACTACTGAAAATTGGCTCTTTCCTTATATGCCATTGACGGAGTCACCTAGTGCAG | 9200 fluorescence intensity (a.u.)
34 | TCCCTTTTGAGTACCACTGCTGATATCTGGATGCCCGTCACGGAGTCACCTAGTGCAG | 8080 fluorescence intensity (a.u.)
35 | ACCCGCACGCCCTCGCCGCCATGTCGTCCGCCACCGCCGCCGGAGTCACCTAGTGCAG | 8230 fluorescence intensity (a.u.)
36 | CCACACCCTTCGTCTCCATCACTCATCCCCAAATCCAACCCGGAGTCACCTAGTGCAG | 8100 fluorescence intensity (a.u.)
37 | TATTGTGTACTACATCTTTTATTATTTCTTTCAAATTTCACGGAGTCACCTAGTGCAG | 10500 fluorescence intensity (a.u.)
38 | TCGTACTGCCCAATAATCTGTCTATTTGAATATCATGTCCCGGAGTCACCTAGTGCAG | 9260 fluorescence intensity (a.u.)
39 | ATACAATTAATGCATGATCCCACCTATCATACACACATTACGGAGTCACCTAGTGCAG | 8080 fluorescence intensity (a.u.)
40 | GAAACCCATGGTTGGGCGGGTTATCCTCTTGCTCTTGCCTCGGAGTCACCTAGTGCAG | 10100 fluorescence intensity (a.u.)
41 | TACACTCAGAAAATGTCTACATGTCATCTGCACCTCTCCACGGAGTCACCTAGTGCAG | 8040 fluorescence intensity (a.u.)
42 | TATGAAGTTGATTTTGTGGATTTTTTCATCGTGATTTATTCGGAGTCACCTAGTGCAG | 8890 fluorescence intensity (a.u.)

Copied from above: entries 30–39
Row | Sequence | binding signal
30 | CCGCCGGCGGCGTCGACCTCACCCCGGCCGCCGCGCGGCGCGGAGTCACCTAGTGCAG | 9490 fluorescence intensity (a.u.)
31 | GTGTTGCGATGGATGGTTACAGAGAGTGAGAAGAGTTGACCGGAGTCACCTAGTGCAG | 8920 fluorescence intensity (a.u.)
32 | GCGCCGTCCCTTCGGGCCCACAAGCCGTCCACCCACTTCCCGGAGTCACCTAGTGCAG | 11300 fluorescence intensity (a.u.)
33 | TATACTACTGAAAATTGGCTCTTTCCTTATATGCCATTGACGGAGTCACCTAGTGCAG | 9200 fluorescence intensity (a.u.)
34 | TCCCTTTTGAGTACCACTGCTGATATCTGGATGCCCGTCACGGAGTCACCTAGTGCAG | 8080 fluorescence intensity (a.u.)
35 | ACCCGCACGCCCTCGCCGCCATGTCGTCCGCCACCGCCGCCGGAGTCACCTAGTGCAG | 8230 fluorescence intensity (a.u.)
36 | CCACACCCTTCGTCTCCATCACTCATCCCCAAATCCAACCCGGAGTCACCTAGTGCAG | 8100 fluorescence intensity (a.u.)
37 | TATTGTGTACTACATCTTTTATTATTTCTTTCAAATTTCACGGAGTCACCTAGTGCAG | 10500 fluorescence intensity (a.u.)
38 | TCGTACTGCCCAATAATCTGTCTATTTGAATATCATGTCCCGGAGTCACCTAGTGCAG | 9260 fluorescence intensity (a.u.)
39 | ATACAATTAATGCATGATCCCACCTATCATACACACATTACGGAGTCACCTAGTGCAG | 8080 fluorescence intensity (a.u.)

— publication PMC7819943, “Rice protein-binding microarrays: a tool to detect cis-acting elements near promoter regions in rice”
